Measurements reported in PubChem BioAssay AID2551 (National Center for Advancing Translational Sciences (NCATS), 2010).
Among all 310,000 compounds or so, about 17,000 (5.5%) were called active. The inconclusive results got no clear call from the source; some entries with a clear call stand among them for comparison. Calls follow the shape of the dose curve; as a rule, active = well fitted inhibition curve with a large enough effect; inconclusive = small, poorly fitted or top-dose-only effect, or effect the other way; inactive = no such curve, though single readings can be large or run the other way. Where the call is inconclusive, the potency comes from a doubtful curve fit.

Protein sequences, listed by entry. Tags and fused reporters are not part of them. Lines headed by an entry give the natural chain unless they say otherwise; changes in a name come on top.
UniProt P51450: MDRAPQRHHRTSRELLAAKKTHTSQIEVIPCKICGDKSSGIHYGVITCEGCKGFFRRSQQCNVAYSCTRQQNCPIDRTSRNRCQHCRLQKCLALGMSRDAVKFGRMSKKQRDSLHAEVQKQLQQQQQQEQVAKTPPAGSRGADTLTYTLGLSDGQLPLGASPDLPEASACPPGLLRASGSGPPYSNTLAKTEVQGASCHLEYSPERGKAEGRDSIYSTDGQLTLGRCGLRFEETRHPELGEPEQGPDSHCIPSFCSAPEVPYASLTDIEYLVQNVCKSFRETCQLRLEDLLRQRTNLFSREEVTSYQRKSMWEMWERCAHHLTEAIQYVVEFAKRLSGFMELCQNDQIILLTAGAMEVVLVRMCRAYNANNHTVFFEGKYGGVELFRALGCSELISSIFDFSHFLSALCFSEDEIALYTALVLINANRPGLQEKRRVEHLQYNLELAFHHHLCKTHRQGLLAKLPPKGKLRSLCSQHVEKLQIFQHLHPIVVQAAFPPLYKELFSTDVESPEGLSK

Molecular target: Nuclear receptor ROR-gamma (Mus musculus) (UniProt P51450)
Assay: qHTS for inhibitors of ROR gamma transcriptional activity; also: nearly all actives have a fitted effect of over 60% in size
Details: Drosophila S2 Gal4-RORgamma UAS-luciferase reporter, 20 h; activity change, negative = inhibition: at 53.6 µM (top of the series)
Summary of the method: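 Luciferase reporter read in Schneider cells carrying Gal4-RORγ (mouse) and UAS-Photinus luciferase; cells given compound 1 h before 700 uM copper sulfate induction, then incubated 20 h at ambient temperature.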
% is scaled to controls: 0 for no effect and ±100 for the full control effect; potency is read from the fitted curve at half-maximal effect.

| SMILES | Potency | activity change, negative = inhibition |
| --- | --- | --- |
| O=C(COc1ccc(S(=O)(=O)Nc2ccc(Cl)cc2)cc1)N1CCOCC1 | inconclusive: 15.8 µM [activator, single point] |  |
| Cc1nc(N2CCCCC2)sc1C(=O)c1cccc([N+](=O)[O-])c1 | inconclusive: 31.6 µM [activator, single point] |  |
| CCOC(=O)c1c(NC(=S)Nc2ccccc2)sc2c1CCN(C)C2 |  | inactive: -15.4% |
| C=C(C)Cn1c(=S)[nH]c2ccccc2c1=O | active: 3.98 µM |  |
| COc1cccc(NC(=O)C2CCCN(S(=O)(=O)c3cccc4cccnc34)C2)c1 (stereo not drawn) |  | inactive: 40.5% |
| COc1ccc(OCC(=O)N2CCOCC2)cc1 | inconclusive: 6.31 µM [inhibitor, single point] |  |
| COc1cccc(C(=O)NC(C)c2ccc(-c3ccccc3)cc2)c1OC (stereo not drawn) | inconclusive: 11.2 µM [activator, partial curve, poor fit] |  |
| CCC(=O)Nc1cccc(-c2nc3ccc(C)cc3o2)c1 | inconclusive: 14.1 µM [inhibitor, single point] |  |
| COc1ccc(-c2[nH]ncc2-c2ccc3c(c2)OCCO3)c(O)c1 | inconclusive: 25.1 µM [inhibitor, single point] |  |
| CC1CCCN(CCCNC(=O)C2CC(=O)N(CCc3ccccc3)C2)C1 (stereo not drawn) |  | inactive: -7.69% |
| O=C(c1ccc2c(=O)n(Cc3ccc4c(c3)OCO4)c(=S)[nH]c2c1)N1CCCCC1 | inconclusive: 10 µM [inhibitor, partial curve] |  |
| CCCCOc1ncnc2c1[nH]c1ccccc12 | inconclusive: 35.5 µM [inhibitor, single point] |  |
| COc1ccc(-c2cnc(SCC(=O)Nc3cc(C)on3)n2Cc2ccco2)cc1 | inconclusive: 11.2 µM [activator, single point] |  |
| O=c1[nH]c2ccccc2nc1C(Nc1ccccc1)c1ccccc1 (stereo not drawn) | inconclusive: 12.6 µM [activator, single point] |  |
| O=C(CCS(=O)(=O)c1ccccc1)Nc1nc2cc3c(cc2s1)OCCO3 |  | inactive: 10.1% |
| O=C(CSc1nnc(CNC(=O)C23CC4CC(CC(C4)C2)C3)n1-c1ccccc1)Nc1ccc(F)cc1 | inconclusive: 35.5 µM [activator, single point] |  |
| Cc1[nH]c2ccccc2c1N=Nc1c(C)n(C)n(-c2ccccc2)c1=O |  | inactive: 29% |
| Cc1cccc(NC(=S)NCc2ccco2)n1 | active: 1.26 µM |  |
| N#C/C(=N\Nc1cccc(C(F)(F)F)c1)C(=O)c1ccsc1 | inconclusive: 31.6 µM [inhibitor, single point] |  |
| CCN(CC)C(=O)Oc1nnc(SC(C)C)n1-c1ccc(Cl)c(Cl)c1 |  | inactive: 18.1% |
| CCOc1ccc2nc(SCC(=O)NC(=O)NCc3ccco3)sc2c1 |  | inactive: 11.2% |
| CSc1cccc(N2CC(C(=O)N(Cc3nnc(-c4ccccc4Cl)o3)C3CC3)CC2=O)c1 (stereo not drawn) | inconclusive: 31.6 µM [activator, single point] |  |
| COC(=O)COC(=O)c1ccccc1NC(=O)c1ccccc1 |  | inactive: 41.5% |
| COC(=O)CSc1nnc(-c2ccccc2O)n1-c1ccc(C)cc1 | inconclusive: 14.1 µM [inhibitor, single point] |  |

| SMILES | Potency | activity change, negative = inhibition |
| --- | --- | --- |
| Cc1sc2ncnc(NCc3cccs3)c2c1C |  | inactive: -13.1% |
| Cc1nc(-c2ccccc2)sc1C(=O)/C=C/c1ccccc1 | inconclusive: 35.5 µM [inhibitor, single point] |  |
| CC(C)(c1ccccc1)c1ccc(OCCN)cc1 | inconclusive: 35.5 µM [inhibitor, single point] |  |
| O=c1c2oc3ccccc3c2[nH]c(=S)n1-c1ccccc1 | inconclusive: 7.94 µM [inhibitor, partial curve, poor fit] |  |
| O=C(N/N=C\c1ccccn1)C1c2ccccc2Oc2ccccc21 | active: 7.94 µM |  |
| CCN(CC)C(=O)Nc1ccc(C(=O)OC)cc1 | inconclusive: 22.4 µM [activator, single point] |  |
| Cc1nc2sc(-c3ccccc3)cc2c(=O)[nH]1 | inconclusive: 8.91 µM [inhibitor, partial curve, poor fit] |  |
| Cc1noc2ncnc(Sc3ccc(Br)cc3)c12 | active: 3.98 µM |  |
| CCCCCn1nc(C)c(/C=N/NC(=O)c2ccoc2C)c1C | inconclusive: 31.6 µM [inhibitor, single point] |  |
| COc1cc(C(=O)Nc2cccc(-c3nc4cc(C)ccc4o3)c2)cc(OC)c1OC | inconclusive: 35.5 µM [inhibitor, partial curve, poor fit] |  |
| CC(CCc1ccccc1)NC(=O)c1ccc2nc(N3CCOCC3)sc2c1 (stereo not drawn) |  | inactive: 35% |
| CCOC(=O)CC1C(=O)NCCN1c1nc2ccc(C)cn2c(=O)c1/C=C1\SC(=S)N(C(C)CC)C1=O (stereo not drawn) |  | inactive: 1.08% |
| Cc1c(NC(=O)C(C)Sc2nnc(-c3ccccc3)o2)c(=O)n(-c2ccccc2)n1C (stereo not drawn) |  | inactive: 11.9% |
| Cc1nc2cc(NC(=O)Nc3nccs3)ccc2n1C | inconclusive: 8.91 µM [inhibitor, partial curve, poor fit] |  |
| Cc1cccc(C(=O)N2CCCC(c3nc(-c4ccc(C)o4)no3)C2)c1 (stereo not drawn) | inconclusive: 7.08 µM [activator, partial curve, poor fit] |  |
| Cc1csc(N)n1 |  | inactive: 2.55% |
| COc1ccc2c(c1)Sc1ccccc1N2 | active: 6.31 µM |  |
| COc1ccc(C(=O)COC(=O)CN2CC(=O)Oc3ccccc32)cc1Br |  | inactive: 28.6% |
| CC1=C(C(N)=O)C(c2ccc(Cl)cc2)n2nc(CCCO)nc2N1 (stereo not drawn) |  | inactive: 4.47% |
| CN(Cc1cccc2cnccc12)C(=O)c1cc(COc2ccc(F)cc2Cl)on1 | inconclusive: 20 µM [activator, partial curve, poor fit] |  |
| COc1cc(C(=O)N2CCN(c3ncnc4sc(C)c(C)c34)CC2)cc(OC)c1OC | inconclusive: 8.91 µM [inhibitor, partial curve] |  |
| CCOc1ccccc1CNC(=O)c1ccccc1NC(=O)C1=CSCCO1 | inconclusive: 35.5 µM [activator, single point] |  |
| CCN(CC)c1nc(C)c(C(=S)Nc2cc([N+](=O)[O-])ccc2Cl)s1 | active: 3.16 µM |  |
| Cc1cc(C)c2c(N)c(C(=O)Nc3ccc(C)c(C)c3)sc2n1 | inconclusive: 3.55 µM [activator, partial curve, poor fit] |  |

Single entries from the results shown.
Potency, O=C(COc1ccc(S(=O)(=O)Nc2ccc(Cl)cc2)cc1)N1CCOCC1 reads inconclusive: 15.8 µM [activator, single point]
Potency, COc1ccc(-c2cnc(SCC(=O)Nc3cc(C)on3)n2Cc2ccco2)cc1 reads inconclusive: 11.2 µM [activator, single point]
